The list shows only some results of the screen, not a fair sample: it gathers tests that were run many times, whatever their T/C, doses with no T/C, and many T/C values between a quarter and a half above the control. Further doses and runs are listed elsewhere. T/C: endpoint of the treated group in % of that of the vehicle group. Some entries give survivors of the animals treated and no T/C: the source holds a T/C of zero for them, seemingly a mark for toxic or unscored doses. Some survivor counts are full or nearly so, which does not show that the dose was tolerated: survival well below the control is almost never listed, so the zero probably covers shortened survival too. Survivors were counted at the toxicity check, usually on the fifth day, unless a day is given; later deaths do not show. Schedules are NCI's codes, read here as Q, the interval in days (D) or hours (H), X, the number of doses. Some entries hold several experiments; the results are listed from low to high. Some schedules carry Z or #; the key to these is not given. For survival time, the PubChem record calls one and a half times the control and up active, and a quarter to a half above the control has no call in these data; cut-offs in other NCI protocols can differ.
Test system: L1210 leukemia ip in BDF1 mice, survival T/C
Experiment: NCI In Vivo Anticancer Drug Screen. Data for tumor model L1210 Leukemia (intraperitoneal) in B6D2F1 (BDF1) mice
Details: T/C endpoint: mean survival time, higher T/C = longer survival
[1] = dose: 25.0 mg/kg/injection, schedule: Q01DX015 (ip), vehicle: carboxymethylcellulose (CMC)
[2] = dose: 100.0 mg/kg/injection, schedule: Q01DX001 (ip), vehicle: carboxymethylcellulose (CMC)
[3] = dose: 200.0 mg/kg/injection, schedule: Q01DX001 (ip), vehicle: carboxymethylcellulose (CMC)
[4] = dose: 400.0 mg/kg/injection, schedule: Q01DX001 (ip), vehicle: carboxymethylcellulose (CMC)
[5] = dose: 400.0 mg/kg/injection, schedule: Q01DX001 (ip), vehicle: saline
[6] = dose: 400.0 mg/kg/injection, schedule: Q01DX009 (ip), vehicle: Klucel (hydroxypropylcellulose) (HPC)

In the case of `OCn1cnc2c(SC3CCCC3)ncnc21`, the T/C (dose: 40.0 mg/kg/injection, schedule: Q01DX009 (ip), vehicle: Klucel (hydroxypropylcellulose) (HPC)) is reported as 134 % of control, the T/C (dose: 53.0 mg/kg/injection, schedule: Q01DX009 (ip), vehicle: saline) is reported as 141 % of control and the T/C (dose: 60.0 mg/kg/injection, schedule: Q01DX009 (ip), vehicle: Klucel (hydroxypropylcellulose) (HPC)) is reported as 142 % of control. The T/C (dose: 80.0 mg/kg/injection, schedule: Q01DX009 (ip), vehicle: saline) was 147 % of control, the T/C (dose: 80.0 mg/kg/injection, schedule: Q01DX015 (ip), vehicle: saline) was 140 % of control and the T/C (dose: 120.0 mg/kg/injection, schedule: Q01DX009 (ip), vehicle: other) was 133 % of control. For the same compound, the T/C (dose: 120.0 mg/kg/injection, schedule: Q01DX009 (ip), vehicle: saline) was 130 % of control, the T/C (dose: 120.0 mg/kg/injection, schedule: Q01DX015 (ip), vehicle: saline) was 148 % of control and the T/C (dose: 133.0 mg/kg/injection, schedule: Q01DX009 (ip), vehicle: Klucel (hydroxypropylcellulose) (HPC)) was 134 % of control. The T/C (dose: 180.0 mg/kg/injection, schedule: Q01DX009 (ip), vehicle: saline) was 133 % of control, the T/C (dose: 270.0 mg/kg/injection, schedule: Q01DX009 (ip), vehicle: other) was 136 % of control and the T/C (dose: 270.0 mg/kg/injection, schedule: Q01DX009 (ip), vehicle: saline) was 143 % of control. The survivor count (dose: 300.0 mg/kg/injection, schedule: Q01DX009 (ip), vehicle: Klucel (hydroxypropylcellulose) (HPC)) was 0 of 4, the T/C (dose: 400.0 mg/kg/injection, schedule: Q01DX009 (ip), vehicle: saline) was 147 % of control and the survivor count (dose: 405.0 mg/kg/injection, schedule: Q01DX015 (ip), vehicle: saline) was 3 of 6.

In the case of `CCCN=C(N)N=C(N)N`, the survivor count (dose: 200.0 mg/kg/injection, schedule: Q01DX009 (ip), vehicle: water) is reported as 0 of 6 and the survivor count (dose: 400.0 mg/kg/injection, schedule: Q04DX003 (ip), vehicle: water) is reported as 0 of 6.

With `COc1cc(N(CCCl)CCCl)ccc1C=Nc1ccccc1C(=O)O` the T/C (dose: 3.5 mg/kg/injection, schedule: Q01DX015 (ip), vehicle: carboxymethylcellulose (CMC)) was 125 % of control, the T/C (dose: 5.3 mg/kg/injection, schedule: Q01DX015 (ip), vehicle: carboxymethylcellulose (CMC)) was 125 and 132 % of control and the T/C (dose: 7.1 mg/kg/injection, schedule: Q01DX015 (ip), vehicle: carboxymethylcellulose (CMC)) was 127 % of control. For the same compound, the T/C (dose: 9.0 mg/kg/injection, schedule: Q01DX015 (ip), vehicle: carboxymethylcellulose (CMC)) was 138 and 142 % of control, the T/C (dose: 10.0 mg/kg/injection, schedule: Q01DX001 (ip), vehicle: carboxymethylcellulose (CMC)) was 131 % of control and the T/C (dose: 15.0 mg/kg/injection, schedule: Q01DX015 (ip), vehicle: carboxymethylcellulose (CMC)) was 146 % of control. The T/C [1] was 97 and 125 % of control, the survivor count [1] was 5 of 6 and 6 of 6 and the survivor count (dose: 35.0 mg/kg/injection, schedule: Q01DX015 (ip), vehicle: carboxymethylcellulose (CMC)) was 0 of 6. The T/C (dose: 40.0 mg/kg/injection, schedule: Q01DX001 (ip), vehicle: carboxymethylcellulose (CMC)) was 140 % of control, the T/C (dose: 50.0 mg/kg/injection, schedule: Q01DX001 (ip), vehicle: carboxymethylcellulose (CMC)) was 125 % of control and the survivor count (dose: 55.0 mg/kg/injection, schedule: Q01DX015 (ip), vehicle: carboxymethylcellulose (CMC)) was 0 of 6. For the same compound, the survivor count (dose: 75.0 mg/kg/injection, schedule: Q01DX001 (ip), vehicle: carboxymethylcellulose (CMC)) was 1 of 4, the survivor count (dose: 80.0 mg/kg/injection, schedule: Q01DX001 (ip), vehicle: carboxymethylcellulose (CMC)) was 1 of 4 and the survivor count (dose: 80.0 mg/kg/injection, schedule: Q01DX015 (ip), vehicle: carboxymethylcellulose (CMC)) was 0 of 6. The survivor count [2] was 0 of 4 and 1 of 4, the survivor count [3] was 0 of 4 and the survivor count [4] was 0 of 4.

With `CCNc1nnnn1-c1ccccc1` the survivor count [5] was 2 of 4.

With `O=C(NC(=O)C(Cl)Cl)OC1c2ccccc2-c2ccccc21` the survivor count [6] was 3 of 6.

`CC(C)CCCC(C)C1CCC2C3CC=C4CC(OCCO)CCC4(C)C3CCC12C` (stereo not drawn) was tested, and the survivor count (dose: 50.0 mg/kg/injection, schedule: Q01DX009 (ip), vehicle: other) was 3 of 3.

`Nc1ccc2ncsc2c1` was tested, and the survivor count (dose: 400.0 mg/kg/injection, schedule: Q01DX009 (ip), vehicle: saline with Tween-80) was 5 of 6.

With `Cc1cccc(C)c1NC(=O)Oc1ccccc1C(N)=O` the survivor count [6] was 2 of 6.

With `CNC1(C)CCC(C)C1` (stereo not drawn) (tested in a mixture with another compound) the survivor count (dose: 113.0 mg/kg/injection, schedule: Q01DX Z (ip), vehicle: methylcellulose (MC)) was 6 of 7 and the survivor count (dose: 225.0 mg/kg/injection, schedule: Q01DX Z (ip), vehicle: methylcellulose (MC)) was 6 of 7.

For `O=P(N1CC1)(N1CC1)N(CCCCN(Cc1ccccc1)P(=O)(N1CC1)N1CC1)Cc1ccccc1`, the survivor count [3] was 2 of 4 and the survivor count [4] was 0 of 4.

In the case of `NCCCCC(N)C(=O)Nc1ccc(Nc2ccc(NC(=O)C(N)CCCCN)cc2)cc1` (stereo not drawn), the survivor count (dose: 100.0 mg/kg/injection, schedule: Q01DX001 (ip), vehicle: saline) is reported as 1 of 6, the survivor count (dose: 200.0 mg/kg/injection, schedule: Q01DX001 (ip), vehicle: saline) is reported as 1 of 6 and the survivor count [5] is reported as 0 of 6.

`NC(N)=NC(=O)COc1ccc(Cl)cc1Cl` was tested, and the survivor count (dose: 400.0 mg/kg/injection, schedule: Q04DX002 (ip), vehicle: saline + alcohol) was 0 of 3.

For `O=C1NC(=S)S/C1=C\c1ccc([N+](=O)[O-])s1`, the survivor count (dose: 400.0 mg/kg/injection, schedule: Q04DX002 (ip), vehicle: Klucel (hydroxypropylcellulose) (HPC)) was 0 of 3.

`CC1(C)C(=NO)C(C)(C)C1=NO` was tested, and the survivor count (dose: 25.0 mg/kg/injection, schedule: Q04DX003 (ip), vehicle: Klucel (hydroxypropylcellulose) (HPC)) was 3 of 6, the survivor count (dose: 50.0 mg/kg/injection, schedule: Q01DX009 (ip), vehicle: Klucel (hydroxypropylcellulose) (HPC)) was 1 of 6 and the survivor count (dose: 100.0 mg/kg/injection, schedule: Q01DX009 (ip), vehicle: Klucel (hydroxypropylcellulose) (HPC)) was 1 of 6. The survivor count (dose: 100.0 mg/kg/injection, schedule: Q04DX003 (ip), vehicle: Klucel (hydroxypropylcellulose) (HPC)) was 4 of 6, the survivor count (dose: 200.0 mg/kg/injection, schedule: Q01DX009 (ip), vehicle: Klucel (hydroxypropylcellulose) (HPC)) was 0 of 6 and the survivor count (dose: 200.0 mg/kg/injection, schedule: Q04DX003 (ip), vehicle: Klucel (hydroxypropylcellulose) (HPC)) was 3 of 6. For the same compound, the survivor count [6] was 0 of 6 and the survivor count (dose: 400.0 mg/kg/injection, schedule: Q04DX003 (ip), vehicle: Klucel (hydroxypropylcellulose) (HPC)) was 1 of 6.

For `O=[N+]([O-])c1ccccc1/C=N/N1CCN(/N=C/c2ccccc2[N+](=O)[O-])CC1`, the survivor count [2] was 4 of 4.
